In article PMC11896610:
No constants are given. Whether binding was seen depends on the method and setting. Binding seen in cells or lysates may run through a third protein. Some entries that bind do so weakly or less than the wild type. Where a sequence is shown, tags or fusion partners need not be part of it.

What was measured:
[1] = molecular target: T1, TEDC1-Halotag-3xFlag (human) (UniProt Q86SX3); assay: co-IP; TEDC1-Halotag-3xFlag captured on Halo-Trap magnetic agarose from lysate of TEDC1-/- cells rescued with it (50 mM Tris pH 7.5, 150 mM NaCl, 1% Triton X-100, 1 mM DTT; 1 hr, 4 °C), western blot; TEDC2 was also precipitated from TUBD1-/- and TUBE1-/- cells
T1 sequence: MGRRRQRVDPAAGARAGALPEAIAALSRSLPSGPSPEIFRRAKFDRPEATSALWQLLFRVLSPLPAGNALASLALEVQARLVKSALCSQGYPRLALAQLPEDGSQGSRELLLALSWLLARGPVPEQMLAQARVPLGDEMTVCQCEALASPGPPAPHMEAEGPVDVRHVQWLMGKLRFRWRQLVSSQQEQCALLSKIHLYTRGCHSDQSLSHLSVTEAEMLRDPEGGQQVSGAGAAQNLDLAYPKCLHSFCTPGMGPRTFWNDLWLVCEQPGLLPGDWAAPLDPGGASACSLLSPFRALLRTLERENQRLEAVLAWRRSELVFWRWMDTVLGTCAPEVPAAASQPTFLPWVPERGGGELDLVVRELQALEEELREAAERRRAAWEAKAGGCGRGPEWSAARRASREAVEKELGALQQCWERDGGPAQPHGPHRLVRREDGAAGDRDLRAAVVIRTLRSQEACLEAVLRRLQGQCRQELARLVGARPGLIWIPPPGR

[2] = molecular target: T2, TEDC2-V5-APEX2 (human) (UniProt Q7L2K0); assay: co-IP; TEDC2-V5-APEX2 captured on V5-Trap magnetic agarose from lysate of TEDC2-/- cells rescued with it (50 mM Tris pH 7.5, 150 mM NaCl, 1% Triton X-100, 1 mM DTT; 1 hr, 4 °C), western blot; TEDC1 was also precipitated from TUBD1-/- and TUBE1-/- cells
T2 sequence: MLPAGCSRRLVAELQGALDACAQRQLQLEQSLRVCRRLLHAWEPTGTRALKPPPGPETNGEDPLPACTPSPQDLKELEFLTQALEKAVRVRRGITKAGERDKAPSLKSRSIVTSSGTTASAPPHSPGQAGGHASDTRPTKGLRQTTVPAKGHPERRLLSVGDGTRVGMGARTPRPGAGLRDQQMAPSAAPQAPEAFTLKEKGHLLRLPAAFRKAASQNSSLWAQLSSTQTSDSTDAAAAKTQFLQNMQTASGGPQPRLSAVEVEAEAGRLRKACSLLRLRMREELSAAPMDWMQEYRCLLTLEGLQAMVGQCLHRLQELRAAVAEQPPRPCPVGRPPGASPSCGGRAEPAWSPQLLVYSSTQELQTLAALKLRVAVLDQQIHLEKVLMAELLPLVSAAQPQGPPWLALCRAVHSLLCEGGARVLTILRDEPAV

B1: TEDC2 (protein, UniProt Q7L2K0 1-433)
chain: T2 sequence
Q: B1 was tested. Which binding [1] did it give?
A: Its binding is “binds”.

B2: TEDC1 (protein, UniProt Q86SX3 1-495)
chain: T1 sequence
Q: With B2 as the binder, how does the binding [2] read?
A: Its binding is “binds”.
